{
  "source": "patent US20260248918A1",
  "about": "“COMPOSITIONS AND METHODS OF SUPPRESSING AVERSIVENESS OF PHARMACEUTICALS AND INGESTIBLE MATERIALS” (Monell Chemical Senses Center, priority 2019, published 2026)",
  "molecular_target": "T1, TAS2R14 (Homo sapiens, UniProt Q9NYV8)",
  "T1 sequence (Q9NYV8 1-317)": "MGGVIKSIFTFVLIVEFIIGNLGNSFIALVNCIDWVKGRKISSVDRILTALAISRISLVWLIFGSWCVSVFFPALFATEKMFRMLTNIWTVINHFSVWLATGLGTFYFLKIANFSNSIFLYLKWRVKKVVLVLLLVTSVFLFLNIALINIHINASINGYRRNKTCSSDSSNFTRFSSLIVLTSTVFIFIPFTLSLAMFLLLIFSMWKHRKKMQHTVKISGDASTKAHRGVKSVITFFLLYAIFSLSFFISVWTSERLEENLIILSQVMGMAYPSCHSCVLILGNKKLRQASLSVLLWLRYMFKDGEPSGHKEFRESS",
  "assay": "Response profile of TAS2Rs to target compounds: TAS2R14",
  "assay_type": "cell-based",
  "conditions": "FIG. 4: Praziquantel 0.75 mM, L-praziquantel 0.1 mM, Dihydroartemisinin 2 mM (not fully dissolved), Piperaquine 0.5 mM, TAF 1 mM, Ritonavir 1 mM, Zinc sulfate 20 mM",
  "method": "FIG. 4 is a table showing response profiles of TAS2Rs to indicated target compounds at indicated concentrations. Praziquantel: 0.75 mM, L-praziquantel: 0.1 mM, Zinc sulfate: 20 mM, Dihydroartemisinin: 2 mM (not fully dissolved), Piperaquine, 0.5 mM, Tenofovir (TAF), 1 mM and Ritonavir, 1 mM. Symbols: + means that there was activation; a − negative sign means that there was no significant activation of the receptor; a “larger + sign” means that receptor(s) were most sensitive to the compound (activated at lower concentrations.\nUsing a primary hTBEC platform, a high throughput screening (HTS) was conducted with more than 2,000 small molecular weight purified phytochemicals and botanical extracts. The screen identified 40 antagonists that suppressed taste cell activation by target APIs. […] TAS2R1 is responsive to piperaquine and tenofovir. (See FIG. 4)",
  "note": "At least one structure is not confirmed: it was looked up by name or label, or the drawing left a doubt.",
  "data": [
    {"compound": "C[C@H]1[C@@H](O)O[C@@H]2O[C@@]3(C)CC[C@H]4[C@H](C)CC[C@@H]1[C@@]24OO3", "note": "[Dihydroartemisinin]", "values": [
      {"measurement": "Activation of TAS2R14", "result": "one of most responsive receptors"}
    ]}
  ]
}
